Some of the results follow. Hit calls seldom repeat between salt and free forms of one compound.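 Kinases, fused to nanoluciferase, were expressed in K562 cells; luminescence was measured every 4 h from 2 to 18 h as percent of control (DMSO = 100%, positive control = 0%). A time point is decreased if signal falls significantly (2 sigma). Hits were called by the authors by a rule that is not shown; the count of time points alone does not decide it.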
Key:
Test in all cases: number of time points (of 5) at which kinase-Nluc abundance scored as decreased, DMSO-normalised (count); higher = more persistent destabilization
[1] = compound: O=C(Nc1ccncc1)Nc1ccc(-c2nc(N3CCOCC3)nc(N3C4CCC3COC4)n2)cc1; conditions: 10 µM; K562; 2-18 h
[2] = compound: O=C(Nc1cnn2ccc(N3CCC[C@@H]3c3cc(F)ccc3F)nc12)N1CC[C@H](O)C1 [Larotrectinib sulfate]; conditions: 10 µM; K562; 2-18 h
[3] = compound: O=C(Nc1cnn2ccc(N3CCC[C@@H]3c3cc(F)ccc3F)nc12)N1CC[C@H](O)C1 [Larotrectinib]; conditions: 10 µM; K562; 2-18 h
[4] = compound: O=C(O)c1ccc2c(c1)nc(Nc1cccc(Cl)c1)c1ccncc12 [Silmitasertib (sodium salt)]; conditions: 10 µM; K562; 2-18 h
[5] = compound: O=C(O)c1ccc2c(c1)nc(Nc1cccc(Cl)c1)c1ccncc12 [Silmitasertib]; conditions: 10 µM; K562; 2-18 h
[6] = compound: O=C(c1ccc(F)c(F)c1Nc1ccc(I)cc1F)N1CC(O)([C@@H]2CCCCN2)C1 [Cobimetinib (hemifumarate)]; conditions: 10 µM; K562; 2-18 h
[7] = compound: O=C(c1ccc(F)c(F)c1Nc1ccc(I)cc1F)N1CC(O)([C@@H]2CCCCN2)C1 [Cobimetinib]; conditions: 10 µM; K562; 2-18 h
[8] = compound: O=C(c1nn(-c2ccc(CN3CCOCC3)cc2)c2c1CS(=O)(=O)c1c(F)cccc1-2)N1CCOCC1; conditions: 10 µM; K562; 2-18 h
[9] = compound: O=C1Nc2ccccc2/C1=C/c1ccccn1 [(E/Z)-GSK-3β inhibitor 1]; conditions: 10 µM; K562; 2-18 h
[10] = compound: O=C1Nc2ccccc2/C1=C/c1ccccn1 [GSK-3β inhibitor 1]; conditions: 10 µM; K562; 2-18 h
[11] = compound: OCCn1cc(-c2cnc3nnn(Cc4ccc5ncccc5c4)c3n2)cn1; conditions: 10 µM; K562; 2-18 h
[12] = compound: Oc1cccc(-c2nc(N3CCOCC3)c3oc4ncccc4c3n2)c1 [PI-103 (Hydrochloride)]; conditions: 2.5 µM; K562; 2-18 h
[13] = compound: Oc1cccc(-c2nc(N3CCOCC3)c3oc4ncccc4c3n2)c1; conditions: 10 µM; K562; 2-18 h
[14] = compound: c1cc(-c2cnn3cc(-c4ccc(OCCN5CCCCC5)cc4)cnc23)ccn1 [Dorsomorphin (dihydrochloride)]; conditions: 2.5 µM; K562; 2-18 h
[15] = compound: c1cc(-c2cnn3cc(-c4ccc(OCCN5CCCCC5)cc4)cnc23)ccn1 [Dorsomorphin]; conditions: 2.5 µM; K562; 2-18 h

By UniProt entry, the sequences of proteins in these tests, tags left out. Where a name states a change or a piece, a line headed by the entry shows the natural chain unless it says otherwise.
UniProt P53667: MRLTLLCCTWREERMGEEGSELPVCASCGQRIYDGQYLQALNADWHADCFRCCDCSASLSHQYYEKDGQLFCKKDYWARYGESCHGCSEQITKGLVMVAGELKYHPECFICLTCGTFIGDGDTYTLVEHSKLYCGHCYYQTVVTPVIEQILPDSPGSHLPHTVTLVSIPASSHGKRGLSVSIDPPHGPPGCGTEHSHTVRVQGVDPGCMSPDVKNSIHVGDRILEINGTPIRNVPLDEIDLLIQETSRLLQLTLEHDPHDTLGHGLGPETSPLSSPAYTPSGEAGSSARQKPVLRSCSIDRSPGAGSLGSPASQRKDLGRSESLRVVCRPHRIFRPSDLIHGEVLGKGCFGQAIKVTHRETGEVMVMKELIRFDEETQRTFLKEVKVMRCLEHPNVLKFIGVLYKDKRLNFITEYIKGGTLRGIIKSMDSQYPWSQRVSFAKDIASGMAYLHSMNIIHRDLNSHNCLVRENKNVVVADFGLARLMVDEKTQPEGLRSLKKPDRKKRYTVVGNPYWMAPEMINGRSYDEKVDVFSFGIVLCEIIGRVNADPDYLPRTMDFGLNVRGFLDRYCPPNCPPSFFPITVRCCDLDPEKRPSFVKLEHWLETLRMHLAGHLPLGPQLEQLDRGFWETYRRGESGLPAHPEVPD
UniProt Q9Y6E0: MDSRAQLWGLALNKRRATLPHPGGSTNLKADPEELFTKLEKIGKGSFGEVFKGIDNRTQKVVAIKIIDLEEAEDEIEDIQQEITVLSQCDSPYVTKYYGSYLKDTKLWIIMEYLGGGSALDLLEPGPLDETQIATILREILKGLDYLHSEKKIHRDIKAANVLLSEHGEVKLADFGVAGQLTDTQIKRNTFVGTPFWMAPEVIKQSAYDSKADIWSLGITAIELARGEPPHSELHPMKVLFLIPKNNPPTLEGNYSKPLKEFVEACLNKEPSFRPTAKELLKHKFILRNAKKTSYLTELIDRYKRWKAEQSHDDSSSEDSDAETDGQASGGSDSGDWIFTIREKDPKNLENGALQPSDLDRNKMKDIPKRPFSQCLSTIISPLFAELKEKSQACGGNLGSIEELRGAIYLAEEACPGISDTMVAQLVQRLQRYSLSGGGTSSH
UniProt O96017, whole entry: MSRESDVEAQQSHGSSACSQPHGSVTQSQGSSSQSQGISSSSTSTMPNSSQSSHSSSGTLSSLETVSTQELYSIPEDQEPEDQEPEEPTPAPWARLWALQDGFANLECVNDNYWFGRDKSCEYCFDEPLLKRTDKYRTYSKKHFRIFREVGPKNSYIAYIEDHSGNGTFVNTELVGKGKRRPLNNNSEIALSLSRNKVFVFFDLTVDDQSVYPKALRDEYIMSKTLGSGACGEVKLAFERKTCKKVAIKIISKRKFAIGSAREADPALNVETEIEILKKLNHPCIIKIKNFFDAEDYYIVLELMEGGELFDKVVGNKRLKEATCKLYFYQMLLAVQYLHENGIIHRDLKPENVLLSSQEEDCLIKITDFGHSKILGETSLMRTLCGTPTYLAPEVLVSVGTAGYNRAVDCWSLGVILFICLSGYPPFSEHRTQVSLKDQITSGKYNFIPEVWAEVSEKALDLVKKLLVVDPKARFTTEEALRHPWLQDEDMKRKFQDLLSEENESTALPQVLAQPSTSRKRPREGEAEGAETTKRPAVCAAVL
UniProt P10398: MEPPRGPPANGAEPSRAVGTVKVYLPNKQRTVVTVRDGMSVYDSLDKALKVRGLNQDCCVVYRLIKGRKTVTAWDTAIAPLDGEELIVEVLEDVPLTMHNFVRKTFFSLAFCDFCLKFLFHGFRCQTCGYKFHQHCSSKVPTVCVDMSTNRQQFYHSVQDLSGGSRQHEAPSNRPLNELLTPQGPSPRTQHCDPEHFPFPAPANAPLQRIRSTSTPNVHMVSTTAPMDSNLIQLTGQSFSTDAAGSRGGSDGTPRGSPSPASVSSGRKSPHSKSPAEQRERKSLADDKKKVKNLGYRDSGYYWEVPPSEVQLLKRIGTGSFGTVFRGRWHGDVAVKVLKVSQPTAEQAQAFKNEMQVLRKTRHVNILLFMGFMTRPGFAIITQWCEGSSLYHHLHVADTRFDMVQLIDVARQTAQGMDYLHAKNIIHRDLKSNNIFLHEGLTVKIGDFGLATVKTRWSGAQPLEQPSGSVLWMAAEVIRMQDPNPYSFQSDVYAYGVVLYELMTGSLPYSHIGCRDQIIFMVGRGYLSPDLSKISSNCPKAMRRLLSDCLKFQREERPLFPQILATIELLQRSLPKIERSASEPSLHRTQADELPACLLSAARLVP
UniProt Q92630: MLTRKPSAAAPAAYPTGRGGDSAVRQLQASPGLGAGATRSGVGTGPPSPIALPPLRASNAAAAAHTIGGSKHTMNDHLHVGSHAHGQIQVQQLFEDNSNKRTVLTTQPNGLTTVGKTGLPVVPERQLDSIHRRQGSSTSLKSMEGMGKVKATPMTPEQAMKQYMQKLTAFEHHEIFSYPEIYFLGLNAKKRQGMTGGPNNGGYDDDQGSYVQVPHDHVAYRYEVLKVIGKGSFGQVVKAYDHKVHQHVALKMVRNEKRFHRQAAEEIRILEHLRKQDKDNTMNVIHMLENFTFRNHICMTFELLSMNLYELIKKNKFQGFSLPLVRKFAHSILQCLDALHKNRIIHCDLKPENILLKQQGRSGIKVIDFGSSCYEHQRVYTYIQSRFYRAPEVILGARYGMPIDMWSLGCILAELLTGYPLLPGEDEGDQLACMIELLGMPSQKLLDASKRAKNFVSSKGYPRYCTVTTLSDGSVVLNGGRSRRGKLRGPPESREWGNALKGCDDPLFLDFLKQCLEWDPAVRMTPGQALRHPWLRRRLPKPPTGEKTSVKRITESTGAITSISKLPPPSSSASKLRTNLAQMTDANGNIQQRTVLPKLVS
UniProt P07949, whole entry, looked up: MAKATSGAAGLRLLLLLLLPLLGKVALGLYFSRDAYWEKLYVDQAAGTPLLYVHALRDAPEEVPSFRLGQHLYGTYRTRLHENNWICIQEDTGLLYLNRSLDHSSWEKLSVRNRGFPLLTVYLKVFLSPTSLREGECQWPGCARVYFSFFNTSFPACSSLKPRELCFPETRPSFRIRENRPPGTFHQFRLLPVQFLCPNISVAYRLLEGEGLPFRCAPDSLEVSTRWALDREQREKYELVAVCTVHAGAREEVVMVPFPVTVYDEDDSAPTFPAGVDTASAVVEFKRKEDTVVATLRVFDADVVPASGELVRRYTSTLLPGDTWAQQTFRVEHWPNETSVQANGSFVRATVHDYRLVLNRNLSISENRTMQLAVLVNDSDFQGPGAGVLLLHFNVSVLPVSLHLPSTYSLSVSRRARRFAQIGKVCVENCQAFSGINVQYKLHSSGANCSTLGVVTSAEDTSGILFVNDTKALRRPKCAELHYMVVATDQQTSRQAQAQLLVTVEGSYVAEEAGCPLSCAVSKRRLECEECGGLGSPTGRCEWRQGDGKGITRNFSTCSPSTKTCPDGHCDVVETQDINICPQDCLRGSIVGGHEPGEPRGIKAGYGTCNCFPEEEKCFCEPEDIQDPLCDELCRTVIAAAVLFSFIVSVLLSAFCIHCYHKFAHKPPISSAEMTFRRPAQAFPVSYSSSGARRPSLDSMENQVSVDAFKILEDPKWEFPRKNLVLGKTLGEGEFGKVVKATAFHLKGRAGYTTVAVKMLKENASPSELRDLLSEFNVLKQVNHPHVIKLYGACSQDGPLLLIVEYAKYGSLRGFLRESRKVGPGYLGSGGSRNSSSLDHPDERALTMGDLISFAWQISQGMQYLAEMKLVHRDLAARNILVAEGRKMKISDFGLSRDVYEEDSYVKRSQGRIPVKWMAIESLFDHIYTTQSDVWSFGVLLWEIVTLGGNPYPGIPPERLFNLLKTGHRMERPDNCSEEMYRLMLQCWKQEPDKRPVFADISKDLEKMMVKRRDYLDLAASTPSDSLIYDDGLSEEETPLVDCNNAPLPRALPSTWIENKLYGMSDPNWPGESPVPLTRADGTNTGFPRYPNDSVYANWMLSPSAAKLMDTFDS
UniProt P07947, whole entry, looked up: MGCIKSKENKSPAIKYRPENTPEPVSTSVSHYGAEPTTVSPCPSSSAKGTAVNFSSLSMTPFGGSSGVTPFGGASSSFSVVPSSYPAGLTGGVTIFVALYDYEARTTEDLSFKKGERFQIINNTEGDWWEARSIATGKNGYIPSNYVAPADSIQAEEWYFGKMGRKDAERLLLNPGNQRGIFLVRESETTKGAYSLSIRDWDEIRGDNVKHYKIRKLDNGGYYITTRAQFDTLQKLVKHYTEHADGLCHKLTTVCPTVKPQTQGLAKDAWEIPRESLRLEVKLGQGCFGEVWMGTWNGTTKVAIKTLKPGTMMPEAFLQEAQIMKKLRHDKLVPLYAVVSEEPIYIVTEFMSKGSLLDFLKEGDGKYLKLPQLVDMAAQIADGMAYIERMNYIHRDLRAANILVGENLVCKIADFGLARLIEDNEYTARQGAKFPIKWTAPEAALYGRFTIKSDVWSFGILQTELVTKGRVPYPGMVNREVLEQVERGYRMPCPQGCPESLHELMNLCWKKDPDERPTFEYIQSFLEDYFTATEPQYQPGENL
UniProt Q15208: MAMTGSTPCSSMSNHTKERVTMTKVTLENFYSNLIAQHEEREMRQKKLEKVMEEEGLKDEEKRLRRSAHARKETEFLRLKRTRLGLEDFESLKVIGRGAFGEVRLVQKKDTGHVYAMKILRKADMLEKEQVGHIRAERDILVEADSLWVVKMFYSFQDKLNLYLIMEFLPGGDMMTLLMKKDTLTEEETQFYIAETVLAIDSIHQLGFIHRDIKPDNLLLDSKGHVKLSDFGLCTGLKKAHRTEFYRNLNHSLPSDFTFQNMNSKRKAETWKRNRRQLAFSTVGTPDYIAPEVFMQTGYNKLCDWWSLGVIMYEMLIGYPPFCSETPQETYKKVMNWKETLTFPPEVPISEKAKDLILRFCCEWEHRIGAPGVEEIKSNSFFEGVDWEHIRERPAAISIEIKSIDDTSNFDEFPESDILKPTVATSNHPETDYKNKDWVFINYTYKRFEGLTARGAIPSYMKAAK
UniProt P48730: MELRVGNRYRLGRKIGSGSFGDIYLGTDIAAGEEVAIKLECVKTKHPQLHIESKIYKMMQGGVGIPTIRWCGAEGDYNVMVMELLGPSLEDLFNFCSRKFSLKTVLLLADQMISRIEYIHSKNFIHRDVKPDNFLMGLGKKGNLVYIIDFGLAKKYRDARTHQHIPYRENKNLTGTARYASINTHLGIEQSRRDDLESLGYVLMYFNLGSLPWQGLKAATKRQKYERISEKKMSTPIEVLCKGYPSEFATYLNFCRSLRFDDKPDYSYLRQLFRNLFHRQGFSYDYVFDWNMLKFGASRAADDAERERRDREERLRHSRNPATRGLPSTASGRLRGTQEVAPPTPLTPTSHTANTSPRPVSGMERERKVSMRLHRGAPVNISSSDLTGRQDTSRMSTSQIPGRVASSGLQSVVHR
UniProt Q00526: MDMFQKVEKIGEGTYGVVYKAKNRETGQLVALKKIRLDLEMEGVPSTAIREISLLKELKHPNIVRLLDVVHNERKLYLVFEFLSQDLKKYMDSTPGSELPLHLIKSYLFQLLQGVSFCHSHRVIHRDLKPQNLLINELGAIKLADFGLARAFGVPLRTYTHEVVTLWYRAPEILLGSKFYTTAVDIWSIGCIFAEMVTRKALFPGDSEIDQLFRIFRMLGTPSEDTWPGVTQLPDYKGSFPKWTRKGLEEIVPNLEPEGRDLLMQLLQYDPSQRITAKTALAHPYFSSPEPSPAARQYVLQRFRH
UniProt Q00535, whole entry, looked up: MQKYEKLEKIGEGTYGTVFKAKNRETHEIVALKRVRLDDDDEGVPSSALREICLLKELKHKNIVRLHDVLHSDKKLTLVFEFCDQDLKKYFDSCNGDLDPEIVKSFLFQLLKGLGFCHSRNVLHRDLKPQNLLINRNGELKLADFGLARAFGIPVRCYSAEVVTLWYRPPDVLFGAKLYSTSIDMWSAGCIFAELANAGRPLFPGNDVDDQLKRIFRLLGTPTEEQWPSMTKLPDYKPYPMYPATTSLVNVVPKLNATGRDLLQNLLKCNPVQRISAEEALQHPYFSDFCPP
UniProt P41240: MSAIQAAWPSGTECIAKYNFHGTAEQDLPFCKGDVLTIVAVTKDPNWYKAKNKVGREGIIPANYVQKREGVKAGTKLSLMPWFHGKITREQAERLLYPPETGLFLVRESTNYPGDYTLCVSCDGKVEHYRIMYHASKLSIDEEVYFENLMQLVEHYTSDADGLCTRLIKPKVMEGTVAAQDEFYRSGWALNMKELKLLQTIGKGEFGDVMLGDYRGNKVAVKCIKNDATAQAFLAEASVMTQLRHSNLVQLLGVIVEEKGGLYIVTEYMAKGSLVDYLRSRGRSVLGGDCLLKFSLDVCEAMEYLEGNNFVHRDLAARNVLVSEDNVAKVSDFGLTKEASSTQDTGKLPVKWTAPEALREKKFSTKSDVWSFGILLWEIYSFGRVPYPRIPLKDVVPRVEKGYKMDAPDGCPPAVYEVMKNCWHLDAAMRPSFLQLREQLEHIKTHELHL

Measured: number of time points

MKNK1 (UniProt Q9BUB5)
1: [13]
3: [4] | [7]
0: [1] | [2] | [3] | [5] | [6] | [8] | [9] | [10] | [11] | [12] | [15]
4: [14]

INSRR (UniProt P14616)
1: [7] | [12]
2: [6] | [13] | [14]
3: [4]
0: [1] | [2] | [3] | [5] | [8] | [9] | [10] | [11] | [15]

PRKCA (UniProt P17252)
0: [1] | [2] | [3] | [4] | [5] | [6] | [7] | [8] | [9] | [10] | [11] | [12] | [13] | [14] | [15]

LIMK1 (UniProt P53667)
3: [13] | [14]
0: [2] | [3] | [5] | [8] | [9] | [10] | [11] | [12] | [15]
2: [4] | [6] | [7]
4: [1]

STK24 (UniProt Q9Y6E0)
0: [1] | [2] | [3] | [4] | [5] | [6] | [7] | [8] | [9] | [10] | [11] | [12] | [13] | [14] | [15]

ERBB3 (UniProt P21860)
4: [4]
2: [7] | [14]
3: [6]
0: [1] | [2] | [3] | [5] | [8] | [9] | [10] | [11] | [12] | [13] | [15]

CHEK2 (UniProt O96017)
0: [1] | [2] | [3] | [5] | [7] | [8] | [9] | [10] | [11] | [12] | [13] | [14] | [15]
2: [4]
1: [6]

TEC (UniProt P42680)
0: [1] | [2] | [3] | [5] | [6] | [7] | [8] | [9] | [10] | [11] | [12] | [13] | [14] | [15]
2: [4]

FGFR3 (UniProt P22607)
0: [1] | [2] | [3] | [4] | [5] | [6] | [7] | [8] | [9] | [10] | [11] | [12] | [13] | [14] | [15]

ARAF (UniProt P10398)
0: [1] | [2] | [3] | [4] | [5] | [6] | [7] | [8] | [9] | [10] | [11] | [12] | [13] | [14] | [15]

LIMK2 (UniProt P53671)
0: [1] | [2] | [3] | [4] | [5] | [7] | [8] | [9] | [10] | [11] | [12] | [13] | [14]
1: [6] | [15]

DYRK2 (UniProt Q92630)
3: [6] | [7]
4: [4] | [14]
0: [1] | [2] | [3] | [5] | [8] | [9] | [10] | [11] | [12] | [13] | [15]

RET (UniProt P07949)
2: [4]
0: [1] | [2] | [3] | [5] | [6] | [7] | [8] | [9] | [10] | [11] | [12] | [13] | [15]
3: [14]

YES1 (UniProt P07947)
1: [4]
0: [1] | [2] | [3] | [5] | [6] | [7] | [8] | [9] | [10] | [11] | [12] | [13] | [14] | [15]

STK38 (UniProt Q15208)
3: [1]
0: [2] | [3] | [4] | [5] | [8] | [9] | [10] | [11] | [12] | [13] | [14] | [15]
1: [6] | [7]

Copied from the results shown (eleven entries):
STK24 (UniProt Q9Y6E0)
0: [1] | [2] | [3] | [4] | [5] | [6] | [7] | [8] | [9] | [10] | [11] | [12] | [13] | [14] | [15]

ERBB3 (UniProt P21860)
4: [4]
2: [7] | [14]
3: [6]
0: [1] | [2] | [3] | [5] | [8] | [9] | [10] | [11] | [12] | [13] | [15]

CHEK2 (UniProt O96017)
0: [1] | [2] | [3] | [5] | [7] | [8] | [9] | [10] | [11] | [12] | [13] | [14] | [15]
2: [4]
1: [6]

TEC (UniProt P42680)
0: [1] | [2] | [3] | [5] | [6] | [7] | [8] | [9] | [10] | [11] | [12] | [13] | [14] | [15]
2: [4]

FGFR3 (UniProt P22607)
0: [1] | [2] | [3] | [4] | [5] | [6] | [7] | [8] | [9] | [10] | [11] | [12] | [13] | [14] | [15]

ARAF (UniProt P10398)
0: [1] | [2] | [3] | [4] | [5] | [6] | [7] | [8] | [9] | [10] | [11] | [12] | [13] | [14] | [15]

LIMK2 (UniProt P53671)
0: [1] | [2] | [3] | [4] | [5] | [7] | [8] | [9] | [10] | [11] | [12] | [13] | [14]
1: [6] | [15]

DYRK2 (UniProt Q92630)
3: [6] | [7]
4: [4] | [14]
0: [1] | [2] | [3] | [5] | [8] | [9] | [10] | [11] | [12] | [13] | [15]

RET (UniProt P07949)
2: [4]
0: [1] | [2] | [3] | [5] | [6] | [7] | [8] | [9] | [10] | [11] | [12] | [13] | [15]
3: [14]

YES1 (UniProt P07947)
1: [4]
0: [1] | [2] | [3] | [5] | [6] | [7] | [8] | [9] | [10] | [11] | [12] | [13] | [14] | [15]

STK38 (UniProt Q15208)
3: [1]
0: [2] | [3] | [4] | [5] | [8] | [9] | [10] | [11] | [12] | [13] | [14] | [15]
1: [6] | [7]

Next part.

LMTK2 (UniProt Q8IWU2)
0: [1] | [2] | [3] | [4] | [5] | [6] | [7] | [8] | [9] | [10] | [11] | [12] | [13] | [14] | [15]

CSNK1D (UniProt P48730)
4: [1]
1: [7] | [13]
0: [2] | [3] | [4] | [5] | [6] | [8] | [9] | [10] | [11] | [12] | [14] | [15]

BMX (UniProt P51813)
4: [5]
1: [6] | [7] | [15]
3: [4] | [14]
0: [1] | [2] | [3] | [8] | [9] | [10] | [11] | [12] | [13]

ROR2 (UniProt Q01974)
0: [1] | [2] | [3] | [4] | [5] | [6] | [7] | [8] | [9] | [10] | [11] | [12] | [13] | [14] | [15]

SYK (UniProt P43405)
0: [1] | [2] | [3] | [4] | [5] | [6] | [7] | [8] | [9] | [10] | [11] | [12] | [13] | [14] | [15]

EGFR_L718V (UniProt P00533)
0: [1] | [2] | [3] | [5] | [7] | [8] | [9] | [10] | [11] | [12] | [13] | [15]
1: [4] | [6] | [14]

JAK1 (UniProt P23458)
3: [4] | [14]
0: [1] | [2] | [3] | [5] | [6] | [7] | [8] | [9] | [10] | [11] | [12] | [13] | [15]

BRAF (UniProt P15056)
3: [5]
2: [1]
0: [2] | [3] | [6] | [7] | [8] | [9] | [10] | [11] | [12] | [13] | [14] | [15]
1: [4]

CDK3 (UniProt Q00526)
2: [2]
0: [1] | [3] | [4] | [5] | [6] | [7] | [8] | [9] | [10] | [11] | [12] | [13] | [14] | [15]

FGR (UniProt P09769)
0: [1] | [2] | [3] | [4] | [5] | [6] | [7] | [8] | [9] | [10] | [11] | [12] | [13] | [14] | [15]

CAMK2G (UniProt Q13555)
0: [1] | [2] | [3] | [5] | [6] | [8] | [9] | [10] | [11] | [12] | [13] | [14] | [15]
1: [4] | [7]

ABL1 (UniProt P00519)
2: [6] | [7] | [12] | [13] | [14]
5: [1] | [4]
0: [2] | [3] | [5] | [8] | [9] | [10] | [11] | [15]

ERBB4_R711C (clone: ERBB4_mut) (UniProt Q15303)
3: [4] | [12]
1: [7] | [13]
0: [1] | [2] | [3] | [5] | [6] | [8] | [9] | [10] | [11] | [15]
4: [14]

EGFR_L861Q (UniProt P00533)
3: [4] | [7] | [14]
2: [6] | [9]
0: [1] | [2] | [3] | [5] | [8] | [10] | [11] | [12] | [13] | [15]

ALK (UniProt Q9UM73)
2: [4] | [7] | [14]
0: [1] | [2] | [3] | [5] | [6] | [8] | [9] | [10] | [11] | [12] | [13] | [15]

IRAK3 (UniProt Q9Y616)
0: [1] | [2] | [3] | [4] | [5] | [7] | [8] | [9] | [10] | [11] | [12] | [13] | [15]
4: [14]
1: [6]

CDK2 (UniProt P24941)
0: [1] | [2] | [3] | [4] | [5] | [6] | [7] | [8] | [9] | [10] | [11] | [12] | [13] | [14] | [15]

MAP2K1 (UniProt Q02750)
0: [1] | [2] | [3] | [4] | [5] | [6] | [7] | [8] | [9] | [10] | [11] | [12] | [13] | [14] | [15]

AKT1 (UniProt P31749)
0: [1] | [2] | [3] | [4] | [5] | [6] | [7] | [8] | [9] | [10] | [11] | [12] | [13] | [14] | [15]

CDK5 (UniProt Q00535)
0: [1] | [2] | [3] | [4] | [5] | [6] | [7] | [8] | [9] | [10] | [12] | [13] | [14] | [15]

CSK (UniProt P41240)
0: [1] | [2] | [3] | [4] | [5] | [6] | [7] | [8] | [9] | [10] | [11] | [12] | [13] | [14] | [15]

FYN (UniProt P06241)
1: [1] | [14]
0: [2] | [3] | [5] | [6] | [7] | [8] | [9] | [10] | [11] | [12] | [15]
2: [4] | [13]

EGFR (UniProt P00533)
1: [4] | [14]
3: [5]
0: [1] | [2] | [3] | [6] | [7] | [8] | [9] | [10] | [11] | [12] | [13] | [15]

SPHK1 (UniProt Q9NYA1)
0: [1] | [2] | [3] | [4] | [5] | [6] | [7] | [8] | [9] | [10] | [11] | [12] | [13] | [14] | [15]

— the supplement of paper PMC12823440, “Inhibitors supercharge kinase turnover through native proteolytic circuits” (Nature, 2025)
